Measurements as given in article PMC12828400.
These are yes or no findings as the source states them, for the method shown. In cells and extracts the contact can be indirect. Some entries that bind do so weakly or less than the wild type.

B1: CEP57L1 (protein, UniProt Q8IYX8 1-460)
chain: MDSELMHSIVGSYHKPPERVFVPSFTQNEPSQNCHPANLEVTSPKILHSPNSQALILALKTLQEKIHRLELERTQAEDNLNILSREAAQYKKALENETNERNLAHQELIKQKKDISIQLSSAQSRCTLLEKQLEYTKRMVLNVEREKNMILEQQAQLQREKEQDQMKLYAKLEKLDVLEKECFRLTTTQKTAEDKIKHLEEKLKEEEHQRKLFQDKASELQTGLEISKIIMSSVSNLKHSKEKKKSSKKTKCIKRRPPWQICSKFGALPFVAEKMRQHRDPHILQKPFNVTETRCLPKPSRTTSWCKAIPPDSEKSISICDNLSELLMAMQDELDQMSMEHQELLKQMKETESHSVCDDIECELECLLKKMEIKGEQISKLKKHQDSVCKLQQKVQNSKMSEASGIQQEDSYPKGSKNIKNSPRKCLTDTNLFQKNSSFHPIRVHNLQMKLRRDDIMWEQ
B2: Kelch-like (KLHL)13 (protein, UniProt Q9P2N7 1-655)
chain: MPLKWKTSSPAIWKFPVPVLKTSRSTPLSPAYISLVEEEDQHMKLSLGGSEMGLSSHLQSSKAGPTRIFTSNTHSSVVLQGFDQLRLEGLLCDVTLMPGDTDDAFPVHRVMMASASDYFKAMFTGGMKEQDLMCIKLHGVSKVGLRKIIDFIYTAKLSLNMDNLQDTLEAASFLQILPVLDFCKVFLISGVTLDNCVEVGRIANTYNLTEVDKYVNSFVLKNFPALLSTGEFLKLPFERLAFVLSSNSLKHCTELELFKATCRWLRLEEPRMDFAAKLMKNIRFPLMTPQELINYVQTVDFMRTDNTCVNLLLEASNYQMMPYMQPVMQSDRTAIRSDTTHLVTLGGVLRQQLVVSKELRMYDEKAHEWKSLAPMDAPRYQHGIAVIGNFLYVVGGQSNYDTKGKTAVDTVFRFDPRYNKWMQVASLNEKRTFFHLSALKGYLYAVGGRNAAGELPTVECYNPRTNEWTYVAKMSEPHYGHAGTVYGGVMYISGGITHDTFQKELMCFDPDTDKWIQKAPMTTVRGLHCMCTVGERLYVIGGNHFRGTSDYDDVLSCEYYSPILDQWTPIAAMLRGQSDVGVAVFENKIYVVGGYSWNNRCMVEIVQKYDPDKDEWHKVFDLPESLGGIRACTLTVFPPEETTPSPSRESPLSAP

How the values were obtained:
[1] = target: T1, Kelch-like (KLHL)13 (human (endogenous in HCT116/SW620)) (UniProt Q9P2N7); test: co-IP; antibodies against KLHL13, CUL3 or CEP57L1 each used to precipitate; HCT116/SW620 cells with or without 300 ug/ml AGEs for 36 h (interactions attenuated by AGEs); Western blot
T1 sequence: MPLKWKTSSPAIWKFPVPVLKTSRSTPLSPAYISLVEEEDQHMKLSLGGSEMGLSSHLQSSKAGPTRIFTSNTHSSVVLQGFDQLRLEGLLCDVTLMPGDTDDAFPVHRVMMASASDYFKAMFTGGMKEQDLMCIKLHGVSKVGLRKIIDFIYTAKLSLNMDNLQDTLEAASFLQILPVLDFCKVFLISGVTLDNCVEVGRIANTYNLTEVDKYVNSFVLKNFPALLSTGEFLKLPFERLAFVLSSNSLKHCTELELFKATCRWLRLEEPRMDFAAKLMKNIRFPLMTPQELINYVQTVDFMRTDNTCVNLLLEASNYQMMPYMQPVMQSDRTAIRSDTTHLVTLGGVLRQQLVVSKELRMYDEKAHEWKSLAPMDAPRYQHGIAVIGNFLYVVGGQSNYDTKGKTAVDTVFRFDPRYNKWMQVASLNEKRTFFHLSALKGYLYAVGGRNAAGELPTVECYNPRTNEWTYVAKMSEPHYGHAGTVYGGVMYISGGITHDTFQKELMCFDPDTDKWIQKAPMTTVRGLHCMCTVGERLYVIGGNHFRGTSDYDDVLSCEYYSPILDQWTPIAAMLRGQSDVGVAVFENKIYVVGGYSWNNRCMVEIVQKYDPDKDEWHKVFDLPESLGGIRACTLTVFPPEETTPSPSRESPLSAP

[2] = target: T2, CEP57L1 (human (endogenous in HCT116/SW620)) (UniProt Q8IYX8); test: as above
T2 sequence: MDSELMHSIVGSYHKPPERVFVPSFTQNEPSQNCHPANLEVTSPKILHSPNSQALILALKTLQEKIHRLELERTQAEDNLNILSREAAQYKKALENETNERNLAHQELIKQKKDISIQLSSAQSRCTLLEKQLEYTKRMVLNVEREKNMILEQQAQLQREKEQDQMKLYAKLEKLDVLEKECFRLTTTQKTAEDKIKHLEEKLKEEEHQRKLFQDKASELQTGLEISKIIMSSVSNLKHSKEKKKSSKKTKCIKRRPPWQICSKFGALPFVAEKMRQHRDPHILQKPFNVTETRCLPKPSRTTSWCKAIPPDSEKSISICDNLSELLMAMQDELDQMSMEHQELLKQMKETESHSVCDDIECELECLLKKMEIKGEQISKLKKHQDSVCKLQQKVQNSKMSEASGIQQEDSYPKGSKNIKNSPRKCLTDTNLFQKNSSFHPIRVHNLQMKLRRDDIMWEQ

[3] = target: T3, CEP57L1 251-460 C-terminal residues (human (cDNA from HCT116 cells)) (UniProt Q8IYX8); test: co-IP; CEP57L1 fragments 1-250 or 251-460 (pCDNA3.1-His constructs) as bait; KLHL13 and CUL3 detected; Western blot
T3 sequence: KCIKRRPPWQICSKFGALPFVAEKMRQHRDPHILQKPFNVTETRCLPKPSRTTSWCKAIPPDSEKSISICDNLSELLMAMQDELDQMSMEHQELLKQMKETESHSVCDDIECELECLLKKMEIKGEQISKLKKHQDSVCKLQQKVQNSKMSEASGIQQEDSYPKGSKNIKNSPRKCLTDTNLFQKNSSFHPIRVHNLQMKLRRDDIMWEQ

[4] = target: T4, CEP57L1 1-250 N-terminal residues (human (cDNA from HCT116 cells)) (UniProt Q8IYX8); test: as above
T4 sequence: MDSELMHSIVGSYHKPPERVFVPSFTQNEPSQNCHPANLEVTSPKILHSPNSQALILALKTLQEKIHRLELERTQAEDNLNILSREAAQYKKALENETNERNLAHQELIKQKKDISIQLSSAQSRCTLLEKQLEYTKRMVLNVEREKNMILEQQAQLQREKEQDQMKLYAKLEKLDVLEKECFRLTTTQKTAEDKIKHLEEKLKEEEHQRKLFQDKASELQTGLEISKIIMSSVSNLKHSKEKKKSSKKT

| Binder | binding [1] | binding [2] | binding [3] | binding [4] |
| --- | --- | --- | --- | --- |
| B1 | binds | – | – | – |
| B2 | – | binds | binds weakly | binds |
